This note sets out measurements from PMC4593031, “Azobenzene Modified Imidacloprid Derivatives as Photoswitchable Insecticides: Steering Molecular Activity in a Controllable Manner” (Scientific Reports, 2015).

This data set relates to house fly brain nAChR. As to the kind of experiment: nAChR binding in vitro, competitive inhibition of [3H]NMI binding. On the set-up: species or system Musca domestica. The note with it: nonirradiated vs irradiated. As to the method:
Tritium labeled nitromethylene analogue of IMI ([^3H]NMI) is a unique reporter for monitoring nAChR binding not only in vitro but also in vivo due to its extremely high binding potency. Here, the in vitro interaction of AMIs with house fly brain nAChR was measured by competitive inhibition of [^3H]NMI binding (Table 2). Photoisomers of AMI-1, 2, 5, and 6 had very poor ability to displacing [^3H]NMI binding (IC50 > 2000 nM) leading to difficulty for difference judgement. […] A 4-fold difference was achieved on AMI-4 and 10 upon photoirradiation. Compounds AMI-9 or AMI-10 have some similarities with the bis-IMI derivatives disclosed by Kagabu et al.[49][50][51]. […]
House fly heads were collected after the fly adults frozen with liquid nitrogen were broken into body parts. […] The reaction mixture was filtered through Whatman GF/B glass-fiber filters prewetted by binding buffer using a Brandel M-24R Harvester (Gaithersburg, MD) to quantitate the bound [^3H]NMI, followed by two rinses each with binding buffer (5 mL) and final liquid scintillation. Nonspecific binding was determined with unlabeled NMI (20 μM). […] The percentage inhibition was determined from two (compounds AMI-1, AMI-2, AMI-5, AMI-6 and azobenzene whose activities were extremely low) or three separate experiments each with triplicate samples. […]

Each structure is given as a SMILES string.

As for `O=[N+]([O-])/N=C1/N(Cc2ccc(/N=N/c3ccccc3)cc2)CCN1Cc1ccc(Cl)nc1` [AMI-4], the “difference in [3H]NMI binding IC50 upon photoirradiation” value is recorded as 4 fold. The figure for `O=[N+]([O-])N=C1N(Cc2ccc(N=Nc3ccc(CN4CCN(Cc5ccc(Cl)nc5)C4=N[N+](=O)[O-])cc3)cc2)CCN1Cc1ccc(Cl)nc1` [AMI-10] is 4 fold.
